The other results are listed elsewhere or left out.
What was measured:
Experiment in all cases: log2 fold change, soluble protein after heating vs DMSO (PISA); higher = thermal stabilisation; K562 lysate, 10 uM; active = over 0.2 and 3.5 SD of the protein, either way, in both replicates (recomputed)
vemurafenib = compound: CCCS(=O)(=O)Nc1ccc(F)c(C(=O)c2c[nH]c3ncc(-c4ccc(Cl)cc4)cc23)c1F [vemurafenib]
In short: (§1)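 Pellets of K562 cells were dounce-homogenised in PBS pH 7.4 with 1 mM MgCl2, and the crude extract was held at 1 mg/mL protein for a 30 min treatment with 10 μM compound. Aliquots were heated for 3 min over 48°C-58°C and pooled before NP-40 was added to 0.5% at 4°C. The supernatant from 21,000xg for 90 min was quantified by TMTpro 16plex LC-MS/MS with channel sums equalised. Values are reported from duplicates as log-two fold change in thermal stability relative to solvent controls.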

The chains behind the UniProt entries cited, without tags or fusion partners. Where a name states a change or a piece, a line headed by the entry shows the natural chain unless it says otherwise.
UniProt O14526: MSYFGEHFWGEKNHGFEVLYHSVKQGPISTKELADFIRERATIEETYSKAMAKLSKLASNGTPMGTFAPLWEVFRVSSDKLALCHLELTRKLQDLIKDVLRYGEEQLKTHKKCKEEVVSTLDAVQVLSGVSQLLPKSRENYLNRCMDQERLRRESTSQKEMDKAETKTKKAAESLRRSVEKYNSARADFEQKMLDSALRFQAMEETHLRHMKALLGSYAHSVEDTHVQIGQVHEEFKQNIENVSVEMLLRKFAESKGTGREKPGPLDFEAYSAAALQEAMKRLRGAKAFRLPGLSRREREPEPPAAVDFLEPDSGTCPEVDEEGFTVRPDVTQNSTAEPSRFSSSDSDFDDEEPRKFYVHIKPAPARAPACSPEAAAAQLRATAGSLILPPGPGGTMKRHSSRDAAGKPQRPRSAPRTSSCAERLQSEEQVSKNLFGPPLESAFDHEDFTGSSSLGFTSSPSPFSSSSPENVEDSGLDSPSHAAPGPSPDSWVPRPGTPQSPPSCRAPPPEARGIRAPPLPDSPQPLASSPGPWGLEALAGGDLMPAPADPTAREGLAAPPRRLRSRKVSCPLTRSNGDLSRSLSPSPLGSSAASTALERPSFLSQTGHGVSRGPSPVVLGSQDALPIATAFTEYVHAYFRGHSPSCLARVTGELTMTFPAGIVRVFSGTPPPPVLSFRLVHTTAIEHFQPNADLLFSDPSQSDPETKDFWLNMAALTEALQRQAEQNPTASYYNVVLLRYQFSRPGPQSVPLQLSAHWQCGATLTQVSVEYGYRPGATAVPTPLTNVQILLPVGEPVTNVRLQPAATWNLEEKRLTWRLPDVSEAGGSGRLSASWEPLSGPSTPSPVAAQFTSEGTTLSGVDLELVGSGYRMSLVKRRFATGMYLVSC
UniProt Q96RU3: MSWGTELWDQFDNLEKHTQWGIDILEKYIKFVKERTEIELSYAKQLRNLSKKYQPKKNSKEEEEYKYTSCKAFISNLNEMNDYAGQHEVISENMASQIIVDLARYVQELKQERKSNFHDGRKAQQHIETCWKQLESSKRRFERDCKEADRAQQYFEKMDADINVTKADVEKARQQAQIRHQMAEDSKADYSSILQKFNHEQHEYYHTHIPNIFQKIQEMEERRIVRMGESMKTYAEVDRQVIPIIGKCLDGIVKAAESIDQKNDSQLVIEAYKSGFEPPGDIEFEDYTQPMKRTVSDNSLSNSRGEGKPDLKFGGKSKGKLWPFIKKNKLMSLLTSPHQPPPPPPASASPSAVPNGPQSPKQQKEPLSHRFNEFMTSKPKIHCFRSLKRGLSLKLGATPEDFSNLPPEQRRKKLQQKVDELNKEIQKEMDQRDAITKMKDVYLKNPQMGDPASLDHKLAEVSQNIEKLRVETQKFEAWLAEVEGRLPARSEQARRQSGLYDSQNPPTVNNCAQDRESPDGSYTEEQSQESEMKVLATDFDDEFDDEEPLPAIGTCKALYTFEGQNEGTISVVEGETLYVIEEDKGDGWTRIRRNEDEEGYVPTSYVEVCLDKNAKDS
UniProt Q5T0N5: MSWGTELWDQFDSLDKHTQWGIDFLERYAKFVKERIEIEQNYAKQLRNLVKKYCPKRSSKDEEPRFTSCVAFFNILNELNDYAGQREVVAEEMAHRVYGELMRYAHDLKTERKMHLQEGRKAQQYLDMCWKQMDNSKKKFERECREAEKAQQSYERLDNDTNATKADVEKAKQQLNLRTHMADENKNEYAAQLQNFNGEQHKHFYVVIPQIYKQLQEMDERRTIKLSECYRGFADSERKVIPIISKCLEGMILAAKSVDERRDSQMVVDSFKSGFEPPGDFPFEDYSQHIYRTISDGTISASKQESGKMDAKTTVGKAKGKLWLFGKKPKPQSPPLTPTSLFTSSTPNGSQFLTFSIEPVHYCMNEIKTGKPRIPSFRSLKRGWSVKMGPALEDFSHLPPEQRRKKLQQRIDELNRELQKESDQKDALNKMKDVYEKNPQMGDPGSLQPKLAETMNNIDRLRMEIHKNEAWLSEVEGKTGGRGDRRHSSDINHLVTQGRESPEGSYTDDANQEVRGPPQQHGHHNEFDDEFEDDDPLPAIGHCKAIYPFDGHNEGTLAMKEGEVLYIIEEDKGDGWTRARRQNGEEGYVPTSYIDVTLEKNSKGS
UniProt Q00688: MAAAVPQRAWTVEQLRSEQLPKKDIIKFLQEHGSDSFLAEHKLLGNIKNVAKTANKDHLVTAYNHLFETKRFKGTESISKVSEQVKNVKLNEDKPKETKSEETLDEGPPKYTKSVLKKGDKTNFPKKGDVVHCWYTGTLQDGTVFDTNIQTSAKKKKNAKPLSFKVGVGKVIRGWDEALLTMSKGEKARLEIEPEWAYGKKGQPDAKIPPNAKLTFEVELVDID
UniProt Q8WVX9: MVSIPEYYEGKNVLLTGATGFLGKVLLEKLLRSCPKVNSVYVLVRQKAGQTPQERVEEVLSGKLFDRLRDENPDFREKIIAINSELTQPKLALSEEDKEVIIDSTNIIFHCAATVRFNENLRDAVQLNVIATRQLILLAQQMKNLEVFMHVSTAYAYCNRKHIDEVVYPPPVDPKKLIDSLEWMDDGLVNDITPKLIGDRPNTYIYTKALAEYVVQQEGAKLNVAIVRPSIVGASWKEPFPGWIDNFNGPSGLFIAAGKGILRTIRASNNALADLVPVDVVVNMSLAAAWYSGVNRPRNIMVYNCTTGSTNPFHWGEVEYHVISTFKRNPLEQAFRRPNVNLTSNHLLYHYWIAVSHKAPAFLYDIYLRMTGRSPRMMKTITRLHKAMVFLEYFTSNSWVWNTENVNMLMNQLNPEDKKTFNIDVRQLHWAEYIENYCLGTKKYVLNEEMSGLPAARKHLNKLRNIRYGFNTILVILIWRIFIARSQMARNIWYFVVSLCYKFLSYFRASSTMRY
UniProt Q9NXK8: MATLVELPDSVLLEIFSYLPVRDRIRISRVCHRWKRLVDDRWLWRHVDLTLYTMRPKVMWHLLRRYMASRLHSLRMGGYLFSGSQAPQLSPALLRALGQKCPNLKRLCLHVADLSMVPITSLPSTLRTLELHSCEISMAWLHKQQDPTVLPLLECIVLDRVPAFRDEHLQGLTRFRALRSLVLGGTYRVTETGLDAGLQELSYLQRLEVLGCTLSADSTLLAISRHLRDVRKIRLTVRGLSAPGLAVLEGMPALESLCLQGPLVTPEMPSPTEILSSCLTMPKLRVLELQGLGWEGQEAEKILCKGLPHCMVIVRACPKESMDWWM
UniProt Q8NEZ5: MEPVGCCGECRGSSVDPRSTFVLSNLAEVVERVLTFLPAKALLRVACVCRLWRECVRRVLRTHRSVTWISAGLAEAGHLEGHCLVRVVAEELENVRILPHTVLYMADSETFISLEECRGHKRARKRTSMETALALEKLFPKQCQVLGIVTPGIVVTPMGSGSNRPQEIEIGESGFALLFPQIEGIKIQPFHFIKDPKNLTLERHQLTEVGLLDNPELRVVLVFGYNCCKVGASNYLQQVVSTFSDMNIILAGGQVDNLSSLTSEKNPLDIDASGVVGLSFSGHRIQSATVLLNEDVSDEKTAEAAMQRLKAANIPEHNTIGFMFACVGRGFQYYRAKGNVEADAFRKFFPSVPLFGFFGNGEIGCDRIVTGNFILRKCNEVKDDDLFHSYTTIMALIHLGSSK
UniProt P16591: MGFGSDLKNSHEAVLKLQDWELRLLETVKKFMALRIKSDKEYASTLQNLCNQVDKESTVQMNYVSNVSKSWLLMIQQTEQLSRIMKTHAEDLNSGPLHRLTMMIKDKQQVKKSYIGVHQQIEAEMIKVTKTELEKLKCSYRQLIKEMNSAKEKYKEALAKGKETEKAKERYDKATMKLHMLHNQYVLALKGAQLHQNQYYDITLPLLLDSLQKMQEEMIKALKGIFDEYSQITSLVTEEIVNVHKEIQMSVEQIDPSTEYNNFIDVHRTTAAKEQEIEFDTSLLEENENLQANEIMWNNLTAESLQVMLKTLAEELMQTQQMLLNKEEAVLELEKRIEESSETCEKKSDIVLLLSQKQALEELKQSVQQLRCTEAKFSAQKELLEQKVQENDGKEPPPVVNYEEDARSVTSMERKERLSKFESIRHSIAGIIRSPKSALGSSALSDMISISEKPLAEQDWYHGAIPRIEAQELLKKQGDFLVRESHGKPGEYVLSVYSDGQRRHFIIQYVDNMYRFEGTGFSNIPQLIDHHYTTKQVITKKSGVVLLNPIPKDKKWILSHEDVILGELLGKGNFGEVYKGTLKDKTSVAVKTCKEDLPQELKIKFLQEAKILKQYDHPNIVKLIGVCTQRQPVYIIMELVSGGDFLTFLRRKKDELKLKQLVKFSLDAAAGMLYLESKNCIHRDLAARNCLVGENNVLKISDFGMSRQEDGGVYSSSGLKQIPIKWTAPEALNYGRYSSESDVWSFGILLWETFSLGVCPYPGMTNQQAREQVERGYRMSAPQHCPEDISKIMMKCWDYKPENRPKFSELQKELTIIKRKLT
UniProt Q9Y285: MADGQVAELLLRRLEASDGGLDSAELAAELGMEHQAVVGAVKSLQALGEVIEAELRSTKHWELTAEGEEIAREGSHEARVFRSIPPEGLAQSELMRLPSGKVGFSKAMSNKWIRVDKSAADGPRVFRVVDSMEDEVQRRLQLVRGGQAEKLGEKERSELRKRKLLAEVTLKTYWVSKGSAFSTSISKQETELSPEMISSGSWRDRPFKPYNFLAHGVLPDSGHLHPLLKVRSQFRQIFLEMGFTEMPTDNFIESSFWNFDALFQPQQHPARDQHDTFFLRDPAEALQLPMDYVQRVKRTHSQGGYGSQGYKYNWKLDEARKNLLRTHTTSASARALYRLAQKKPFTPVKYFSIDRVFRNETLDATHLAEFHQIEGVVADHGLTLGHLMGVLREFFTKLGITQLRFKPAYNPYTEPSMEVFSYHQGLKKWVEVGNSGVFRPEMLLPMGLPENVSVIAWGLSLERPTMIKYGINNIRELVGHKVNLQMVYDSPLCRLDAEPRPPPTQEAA
UniProt Q7L8L6: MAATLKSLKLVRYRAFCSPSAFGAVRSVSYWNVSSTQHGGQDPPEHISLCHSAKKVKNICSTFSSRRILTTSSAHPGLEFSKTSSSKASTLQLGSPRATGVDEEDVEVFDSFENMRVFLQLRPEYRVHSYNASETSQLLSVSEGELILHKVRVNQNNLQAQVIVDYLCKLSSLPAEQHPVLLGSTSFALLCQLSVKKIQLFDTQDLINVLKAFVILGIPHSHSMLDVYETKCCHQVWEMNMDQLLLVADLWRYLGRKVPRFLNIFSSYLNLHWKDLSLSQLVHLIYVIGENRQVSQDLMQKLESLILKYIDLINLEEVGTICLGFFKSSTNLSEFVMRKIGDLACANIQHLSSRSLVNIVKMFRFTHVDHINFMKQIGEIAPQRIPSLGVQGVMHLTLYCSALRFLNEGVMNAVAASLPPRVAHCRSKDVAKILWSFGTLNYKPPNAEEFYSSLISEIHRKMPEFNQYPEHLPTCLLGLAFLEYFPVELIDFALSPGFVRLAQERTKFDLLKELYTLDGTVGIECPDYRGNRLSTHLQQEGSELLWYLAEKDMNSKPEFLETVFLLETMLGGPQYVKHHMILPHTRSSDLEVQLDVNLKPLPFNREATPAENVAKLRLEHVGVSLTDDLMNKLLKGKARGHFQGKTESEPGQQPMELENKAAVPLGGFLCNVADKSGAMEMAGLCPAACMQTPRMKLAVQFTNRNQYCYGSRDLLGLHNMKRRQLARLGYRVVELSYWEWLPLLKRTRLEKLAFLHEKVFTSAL
UniProt Q96GI7: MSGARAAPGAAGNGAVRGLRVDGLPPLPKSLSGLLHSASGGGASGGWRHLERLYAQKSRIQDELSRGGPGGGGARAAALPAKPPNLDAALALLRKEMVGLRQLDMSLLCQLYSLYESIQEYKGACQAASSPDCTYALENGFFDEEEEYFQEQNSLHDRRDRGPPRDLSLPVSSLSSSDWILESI
UniProt P07954: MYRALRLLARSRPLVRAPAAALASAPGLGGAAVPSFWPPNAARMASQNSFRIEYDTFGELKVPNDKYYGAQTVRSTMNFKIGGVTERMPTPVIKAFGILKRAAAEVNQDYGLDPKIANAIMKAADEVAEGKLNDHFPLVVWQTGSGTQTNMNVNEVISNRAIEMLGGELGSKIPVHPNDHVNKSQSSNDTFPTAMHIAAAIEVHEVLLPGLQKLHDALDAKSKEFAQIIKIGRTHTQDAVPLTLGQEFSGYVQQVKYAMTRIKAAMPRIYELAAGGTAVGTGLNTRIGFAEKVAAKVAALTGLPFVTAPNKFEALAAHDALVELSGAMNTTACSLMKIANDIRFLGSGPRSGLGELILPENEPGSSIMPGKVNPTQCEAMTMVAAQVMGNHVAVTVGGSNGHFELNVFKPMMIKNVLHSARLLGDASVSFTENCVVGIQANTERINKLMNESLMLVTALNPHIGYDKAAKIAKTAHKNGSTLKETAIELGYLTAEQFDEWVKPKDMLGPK

[1] = compound: CCCS(=O)(=O)Nc1ccc(F)c(C(=O)c2c[nH]c3ncc(Cl)cc23)c1F
In short: as §1

barasertib = compound: CCN(CCCOc1ccc2c(Nc3cc(CC(=O)Nc4cccc(F)c4)[nH]n3)ncnc2c1)CCOP(=O)(O)O [barasertib]
In short: as §1

[2] = compound: CC[C@@H]1C(=O)N(C)c2cnc(Nc3ccc(C(=O)NC4CCN(C)CC4)cc3OC)nc2N1C1CCCC1
In short: as §1

volasertib = compound: CC[C@@H]1C(=O)N(C)c2cnc(Nc3ccc(C(=O)N[C@H]4CC[C@H](N5CCN(CC6CC6)CC5)CC4)cc3OC)nc2N1C(C)C [volasertib]
In short: as §1

[3] = compound: CCn1c(C(=O)N(C2CC2)C2CC2)cc2c3c(ncn3C)c(Nc3cc(C)n(C)n3)nc21
In short: as §1

[4] = compound: CCn1cc(-c2ccnc3[nH]c(-c4cccc(CN(C)C)c4)cc23)c(-c2ccc(NC(=O)N(C)C)cc2)n1
In short: as §1

[5] = compound: CN1CCC(CNc2ccc3ncc(-c4cccc(OC(F)(F)F)c4)n3n2)CC1
In short: as §1

saracatinib = compound: CN1CCN(CCOc2cc(OC3CCOCC3)c3c(Nc4c(Cl)ccc5c4OCO5)ncnc3c2)CC1 [saracatinib]
In short: as §1

sotrastaurin = compound: CN1CCN(c2nc(C3=C(c4c[nH]c5ccccc45)C(=O)NC3=O)c3ccccc3n2)CC1 [sotrastaurin]
In short: as §1

Target | log2 fold change (vemurafenib) | log2 fold change [1] | log2 fold change (barasertib) | log2 fold change [2] | log2 fold change (volasertib) | log2 fold change [3] | log2 fold change [4] | log2 fold change [5] | log2 fold change (saracatinib) | log2 fold change (sotrastaurin)
FANCB (UniProt Q8NB91) | inactive: -0.048 | inactive: 0.03 | inactive: 0.019 | inactive: -0.052 | inactive: 0.005 | inactive: -0.005 | inactive: -0.05 | inactive: 0.046 | inactive: 0.103 | inactive: 0.04
FCHO1 (UniProt O14526) | inactive: 0.023 | inactive: 0.033 | inactive: 0.02 | inactive: 0.023 | inactive: -0.062 | inactive: -0.026 | inactive: -0.053 | inactive: -0.004 | inactive: 0.006 | inactive: -0.015
FAM98A (UniProt Q8NCA5) | inactive: 0.063 | inactive: 0.032 | inactive: -0.016 | inactive: 0.045 | inactive: -0.029 | inactive: -0.005 | inactive: 0.088 | inactive: -0.08 | inactive: -0.028 | inactive: 0.017
FCSK (UniProt Q8N0W3) | inactive: -0.004 | inactive: 0.017 | inactive: 0.052 | inactive: 0.004 | inactive: -0.002 | inactive: -0.013 | inactive: -0.123 | inactive: 0.049 | inactive: -0.008 | inactive: -0.01
FKBP9 (UniProt O95302) | inactive: 0.003 | inactive: 0.043 | inactive: 0.008 | inactive: 0.053 | inactive: 0.005 | inactive: -0.049 | inactive: 0.025 | inactive: 0.014 | inactive: 0.024 | inactive: -0.011
FNBP1 (UniProt Q96RU3) | inactive: -0.065 | inactive: -0.019 | inactive: -0.02 | inactive: -0.047 | inactive: -0.043 | inactive: 0.046 | inactive: 0.042 | inactive: 0.121 | inactive: -0.049 | inactive: 0.038
FNBP1L (UniProt Q5T0N5) | inactive: 0.003 | inactive: 0.029 | inactive: 0.167 | inactive: -0.085 | inactive: -0.068 | inactive: -0.013 | inactive: -0.024 | inactive: -0.019 | inactive: -0.013 | inactive: 0.048
FKBP3 (UniProt Q00688) | inactive: 0.027 | inactive: 0.005 | inactive: -0.039 | inactive: 0.062 | inactive: 0.028 | inactive: -0.015 | inactive: -0.02 | inactive: 0.02 | inactive: -0.007 | inactive: -0.018
FHL2 (UniProt Q14192) | inactive: 0.045 | inactive: 0.034 | inactive: -0.007 | inactive: 0.068 | inactive: 0.067 | inactive: -0.026 | inactive: -0.064 | inactive: 0.042 | inactive: -0.011 | inactive: -0.111
FAR1 (UniProt Q8WVX9) | inactive: 0.029 | inactive: 0.161 | inactive: 0.116 | inactive: -0.051 | inactive: 0.057 | inactive: -0.008 | inactive: -0.074 | inactive: -0.162 | inactive: -0.028 | inactive: -0.021
FKBP8 isoform 2 (UniProt Q14318) | inactive: -0.037 | inactive: -0.01 | inactive: 0.366 | inactive: -0.045 | inactive: 0.005 | inactive: -0.029 | inactive: 0.033 | inactive: -0.084 | inactive: -0.022 | inactive: 0.006
FBXL12 (UniProt Q9NXK8) | inactive: -0.003 | inactive: -0.01 | inactive: 0.049 | inactive: -0.062 | inactive: -0.041 | inactive: -0.086 | inactive: -0.023 | inactive: 0 | inactive: 0.006 | inactive: 0.056
FCHSD1 (UniProt Q86WN1) | inactive: 0.068 | inactive: -0.001 | inactive: 0.099 | inactive: -0.107 | inactive: 0.035 | inactive: -0.077 | inactive: -0.073 | inactive: 0.08 | inactive: -0.043 | inactive: -0.047
FNTA (UniProt P49354) | inactive: -0.028 | inactive: -0.009 | inactive: 0.014 | inactive: 0.046 | inactive: 0.012 | inactive: -0.01 | inactive: 0.071 | inactive: -0.057 | inactive: 0.002 | inactive: -0.064
FN3K (UniProt Q9H479) | inactive: 0.06 | inactive: -0.015 | inactive: -0.019 | inactive: 0.022 | inactive: 0.011 | inactive: 0.006 | inactive: 0.089 | inactive: -0.062 | inactive: -0.004 | inactive: 0.043
FBXO22 (UniProt Q8NEZ5) | inactive: 0.017 | inactive: 0.001 | inactive: 0.025 | inactive: 0.011 | inactive: -0.027 | inactive: 0.012 | inactive: -0.002 | inactive: -0.008 | inactive: -0.015 | inactive: 0.01
FER (UniProt P16591) | inactive: -0.01 | inactive: -0.224 | inactive: 0.191 | inactive: 0.069 | inactive: -0.004 | inactive: -0.042 | inactive: -0.173 | inactive: 0.189 | inactive: -0.006 | inactive: 0.327
FARSB (UniProt Q9NSD9) | inactive: -0.009 | inactive: 0.006 | inactive: 0.018 | inactive: 0.003 | inactive: -0.024 | inactive: 0.016 | inactive: 0 | inactive: -0.018 | inactive: 0.022 | inactive: 0.095
FAU (UniProt E9PR30) | inactive: -0.009 | inactive: -0.015 | inactive: -0.17 | inactive: 0.005 | inactive: -0.002 | inactive: 0.036 | active: 0.33 | inactive: -0.076 | inactive: -0.042 | inactive: -0.012
FN1 (UniProt P02751) | inactive: -0.009 | inactive: -0.009 | inactive: 0.024 | inactive: 0.057 | inactive: 0.02 | inactive: -0.011 | inactive: -0.106 | inactive: 0.098 | inactive: 0.013 | inactive: 0.019
FGD6 (UniProt Q6ZV73) | inactive: 0.691 | inactive: -0.551 | inactive: -0.401 | inactive: 0.356 | inactive: -0.084 | inactive: 0.003 | inactive: -0.227 | inactive: -0.214 | inactive: 0.05 | inactive: 0.071
FHL3 (UniProt Q13643) | inactive: -0.017 | inactive: -0.012 | inactive: -0.061 | inactive: -0.007 | inactive: 0.044 | inactive: 0 | inactive: 0.017 | inactive: 0.036 | inactive: -0.029 | inactive: -0.102
FARSA (UniProt Q9Y285) | inactive: -0.002 | inactive: -0.01 | inactive: -0.012 | inactive: 0.091 | inactive: -0.035 | inactive: -0.068 | inactive: -0.018 | inactive: 0.054 | inactive: 0.03 | active: 0.583
FMR1 (UniProt Q06787) | inactive: 0 | inactive: -0.005 | inactive: -0.073 | inactive: -0.083 | inactive: -0.065 | inactive: 0 | inactive: 0.051 | inactive: 0.087 | inactive: -0.024 | inactive: -0.02
FASTKD5 (UniProt Q7L8L6) | inactive: -0.003 | inactive: 0.008 | inactive: -0.047 | inactive: 0.073 | inactive: -0.065 | inactive: 0.028 | inactive: 0.082 | inactive: -0.245 | inactive: 0.043 | inactive: -0.026
FKBP5 (UniProt Q13451) | inactive: 0.039 | inactive: 0 | inactive: 0.015 | inactive: -0.026 | inactive: -0.039 | inactive: 0.005 | inactive: 0.039 | inactive: -0.039 | inactive: 0.006 | inactive: 0.019
FAM89A (UniProt Q96GI7) | inactive: 0.104 | inactive: 0.067 | inactive: 0.308 | inactive: -0.03 | inactive: 0.046 | inactive: 0.043 | inactive: 0.021 | inactive: 0.057 | inactive: 0.036 | inactive: 0.011
FH (UniProt P07954) | inactive: 0.009 | inactive: -0.005 | inactive: 0.027 | inactive: -0.019 | inactive: 0.002 | inactive: 0.006 | inactive: 0.02 | inactive: -0.029 | inactive: 0.008 | inactive: 0.013

Looked up one by one from the entries so far, 2 records:
Target | log2 fold change (vemurafenib) | log2 fold change [1] | log2 fold change (barasertib) | log2 fold change [2] | log2 fold change (volasertib) | log2 fold change [3] | log2 fold change [4] | log2 fold change [5] | log2 fold change (saracatinib) | log2 fold change (sotrastaurin)
FCHSD1 (UniProt Q86WN1) | inactive: 0.068 | inactive: -0.001 | inactive: 0.099 | inactive: -0.107 | inactive: 0.035 | inactive: -0.077 | inactive: -0.073 | inactive: 0.08 | inactive: -0.043 | inactive: -0.047
FKBP3 (UniProt Q00688) | inactive: 0.027 | inactive: 0.005 | inactive: -0.039 | inactive: 0.062 | inactive: 0.028 | inactive: -0.015 | inactive: -0.02 | inactive: 0.02 | inactive: -0.007 | inactive: -0.018
